In article PMC8384837 one finds binding signal (log2 enrichment (interaction score)) data, which are given here for three sequences.

Residue numbers refer to the chain shown, from its start. The list shows a part of the results. For part of these data: At the low end of the ranking the order means little.

Common to all, as to details: yeast three-hybrid, YBZ-1, SC-Leu-His + 0.5 mM 3-AT, 4 days
The target in assay [1] is T1, PUM1 PUF domain R2-KCA N899K + Y900C + Q903A (UniProt Q14671).
T1 sequence: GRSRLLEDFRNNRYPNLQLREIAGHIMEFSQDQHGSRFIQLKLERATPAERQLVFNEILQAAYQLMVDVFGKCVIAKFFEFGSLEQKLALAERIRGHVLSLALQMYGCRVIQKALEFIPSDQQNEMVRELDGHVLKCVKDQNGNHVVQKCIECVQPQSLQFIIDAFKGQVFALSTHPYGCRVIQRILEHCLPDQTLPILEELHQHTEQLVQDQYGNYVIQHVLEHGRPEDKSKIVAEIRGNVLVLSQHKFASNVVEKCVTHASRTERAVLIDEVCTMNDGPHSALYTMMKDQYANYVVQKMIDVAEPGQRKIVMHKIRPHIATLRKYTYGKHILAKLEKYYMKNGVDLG

For assay [2], the target named is T2, PUM1 PUF domain R2-KIG N899K + Y900I + Q903G (UniProt Q14671).
T2 sequence: T1 sequence with C73I, A76G

The target of assay [3] is T3, PUM1 PUF domain R2-KLQ N899K + Y900L (UniProt Q14671).
T3 sequence: T1 sequence with C73L, A76Q

Assay [4] has as its target T4, PUM1 PUF domain R2-KRA N899K + Y900R + Q903A (UniProt Q14671).
T4 sequence: T1 sequence with C73R

The target of assay [5] is T5, PUM1 PUF domain R2-LFC N899L + Y900F + Q903C (UniProt Q14671).
T5 sequence: T1 sequence with K72L, C73F, A76C

Assay [6] concerns the target T6, PUM1 PUF domain R2-LHR N899L + Y900H + Q903R (UniProt Q14671).
T6 sequence: T1 sequence with K72L, C73H, A76R

The target in assay [7] is T7, PUM1 PUF domain R2-LIM N899L + Y900I + Q903M (UniProt Q14671).
T7 sequence: T1 sequence with K72L, C73I, A76M

Assay [8] concerns the target T8, PUM1 PUF domain R2-LLL N899L + Y900L + Q903L (UniProt Q14671).
T8 sequence: T1 sequence with K72L, C73L, A76L

Assay [9] deals with T9, PUM1 PUF domain R2-LLY N899L + Y900L + Q903Y (UniProt Q14671).
T9 sequence: T1 sequence with K72L, C73L, A76Y

In assay [10] the target is T10, PUM1 PUF domain R2-LWM N899L + Y900W + Q903M (UniProt Q14671).
T10 sequence: T1 sequence with K72L, C73W, A76M

Assay [11] addresses T11, PUM1 PUF domain R2-LYL N899L + Q903L (UniProt Q14671).
T11 sequence: T1 sequence with K72L, C73Y, A76L

In assay [12] the target is T12, PUM1 PUF domain R2-MWG N899M + Y900W + Q903G (UniProt Q14671).
T12 sequence: T1 sequence with K72M, C73W, A76G

Assay [13] addresses T13, PUM1 PUF domain R2-PWE N899P + Y900W + Q903E (UniProt Q14671).
T13 sequence: T1 sequence with K72P, C73W, A76E

Assay [14] concerns the target T14, PUM1 PUF domain R2-PYE N899P + Q903E (UniProt Q14671).
T14 sequence: T1 sequence with K72P, C73Y, A76E

The target in assay [15] is T15, PUM1 PUF domain R2-RKQ N899R + Y900K (UniProt Q14671).
T15 sequence: T1 sequence with K72R, C73K, A76Q

In assay [16] the target is T16, PUM1 PUF domain R2-RKV N899R + Y900K + Q903V (UniProt Q14671).
T16 sequence: T1 sequence with K72R, C73K, A76V

Assay [17] concerns the target T17, PUM1 PUF domain R3-GFF C935G + R936F + Q939F (Homo sapiens) (UniProt Q14671).
T17 sequence: T1 sequence with K72N, C73Y, A76Q, C108G, R109F, Q112F

Assay [18] addresses T18, PUM1 PUF domain R3-GFW C935G + R936F + Q939W (Homo sapiens) (UniProt Q14671).
T18 sequence: T1 sequence with K72N, C73Y, A76Q, C108G, R109F, Q112W

Assay [19] concerns the target T19, PUM1 PUF domain R3-VRD C935V + Q939D (Homo sapiens) (UniProt Q14671).
T19 sequence: T1 sequence with K72N, C73Y, A76Q, C108V, Q112D

The target in assay [20] is T20, PUM1 PUF domain R3-VRV C935V + Q939V (Homo sapiens) (UniProt Q14671).
T20 sequence: T1 sequence with K72N, C73Y, A76Q, C108V, Q112V

As to “GGCUAGAACUAGUGGAUCCCCCGGCGCCCGGCGGCUCGAGCCCGGGUAAGUGUAAAUAGUCUGCAUGCCGCCGGGCGCCAUGCCUGCAGGUCGACUCUAGAAAACAUG”, the binding signal (log2 enrichment (interaction score)) was below -6.62 in [1]; -5.19 in assay [2]; below -5.39 in assay [3]; below -7.68 in [4]; below -6.07 in [5]; below -6.57 in assay [6]. Besides, the binding signal (log2 enrichment (interaction score)) in assay [7] was below -6.71; in [8] it was -9.74; in assay [9] it was below -9.09; in assay [10], below -7.13; in assay [11], below -6.48; in assay [12], below -6.63. Also, the binding signal (log2 enrichment (interaction score)) is below -7.06 in assay [13], below -7.36 in [14], below -7.08 in assay [15] and -7.13 in [16].
Turning to “GGCUAGAACUAGUGGAUCCCCCGGCGCCCGGCGGCUCGAGCCCGGGUAAGUGUAAUUAGUCUGCAUGCCGCCGGGCGCCAUGCCUGCAGGUCGACUCUAGAAAACAUG”, the binding signal (log2 enrichment (interaction score)) in assay [17] was -0.57; in assay [18], -1.17; in assay [19], -1.7; in assay [20], -0.81.
Turning to “GGCUAGAACUAGUGGAUCCCCCGGCGCCCGGCGGCUCGAGCCCGGGUAAGUGUAAGUAGUCUGCAUGCCGCCGGGCGCCAUGCCUGCAGGUCGACUCUAGAAAACAUG”, the binding signal (log2 enrichment (interaction score)) in assay [17] was -0.66; in assay [18], -1.23; in assay [19], -0.71; in [20] it was -1.68.
